Values of other authors as cited in US11795378B2, “Iron control composition, make, and use in carbonate stimulation” (King Fahd University of Petroleum and Minerals, priority 2019, dated 2023).
Some results were stated once for a whole list of compounds, not compound by compound.

Conditions: 5% chelating agent, 3000 ppm ferric ions; cited from earlier work

| SMILES | pH up to which ferric ions are kept in solution |
| --- | --- |
| O=C(O)CN(CCN(CC(=O)O)CC(=O)O)CCN(CC(=O)O)CC(=O)O [DTPA, diethylenetriamine pentaacetic acid] | ≤ 4.35 |
| O=C(O)CN(CCO)CCN(CC(=O)O)CC(=O)O [HEDTA, hydroxyethyl ethylenediamine triacetic acid] | ≤ 4.35 |
